Data on three substances can be found in publication PMC10468069.

Amino acid sequences for entries named in this document (tags omitted).
UniProt P53894: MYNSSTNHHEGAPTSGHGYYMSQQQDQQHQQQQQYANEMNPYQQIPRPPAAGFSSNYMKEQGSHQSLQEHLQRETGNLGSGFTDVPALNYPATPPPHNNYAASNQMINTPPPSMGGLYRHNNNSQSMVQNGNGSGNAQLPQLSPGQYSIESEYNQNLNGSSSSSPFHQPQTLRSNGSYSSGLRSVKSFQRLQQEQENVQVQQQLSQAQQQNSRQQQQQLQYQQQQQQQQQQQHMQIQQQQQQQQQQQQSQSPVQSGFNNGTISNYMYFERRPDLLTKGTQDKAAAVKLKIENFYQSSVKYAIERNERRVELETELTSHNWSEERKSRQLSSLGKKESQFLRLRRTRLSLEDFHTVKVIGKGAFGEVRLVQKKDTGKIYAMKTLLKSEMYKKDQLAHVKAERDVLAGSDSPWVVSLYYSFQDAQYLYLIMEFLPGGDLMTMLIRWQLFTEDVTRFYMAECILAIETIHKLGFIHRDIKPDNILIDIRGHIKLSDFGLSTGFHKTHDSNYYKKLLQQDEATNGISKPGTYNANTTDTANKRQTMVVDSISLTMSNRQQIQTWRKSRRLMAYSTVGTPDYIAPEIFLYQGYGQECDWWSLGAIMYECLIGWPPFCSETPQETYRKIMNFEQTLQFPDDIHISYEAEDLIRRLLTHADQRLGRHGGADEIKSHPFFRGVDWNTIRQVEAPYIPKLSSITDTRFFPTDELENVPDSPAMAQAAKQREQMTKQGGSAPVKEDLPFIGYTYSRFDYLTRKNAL
UniProt P33332: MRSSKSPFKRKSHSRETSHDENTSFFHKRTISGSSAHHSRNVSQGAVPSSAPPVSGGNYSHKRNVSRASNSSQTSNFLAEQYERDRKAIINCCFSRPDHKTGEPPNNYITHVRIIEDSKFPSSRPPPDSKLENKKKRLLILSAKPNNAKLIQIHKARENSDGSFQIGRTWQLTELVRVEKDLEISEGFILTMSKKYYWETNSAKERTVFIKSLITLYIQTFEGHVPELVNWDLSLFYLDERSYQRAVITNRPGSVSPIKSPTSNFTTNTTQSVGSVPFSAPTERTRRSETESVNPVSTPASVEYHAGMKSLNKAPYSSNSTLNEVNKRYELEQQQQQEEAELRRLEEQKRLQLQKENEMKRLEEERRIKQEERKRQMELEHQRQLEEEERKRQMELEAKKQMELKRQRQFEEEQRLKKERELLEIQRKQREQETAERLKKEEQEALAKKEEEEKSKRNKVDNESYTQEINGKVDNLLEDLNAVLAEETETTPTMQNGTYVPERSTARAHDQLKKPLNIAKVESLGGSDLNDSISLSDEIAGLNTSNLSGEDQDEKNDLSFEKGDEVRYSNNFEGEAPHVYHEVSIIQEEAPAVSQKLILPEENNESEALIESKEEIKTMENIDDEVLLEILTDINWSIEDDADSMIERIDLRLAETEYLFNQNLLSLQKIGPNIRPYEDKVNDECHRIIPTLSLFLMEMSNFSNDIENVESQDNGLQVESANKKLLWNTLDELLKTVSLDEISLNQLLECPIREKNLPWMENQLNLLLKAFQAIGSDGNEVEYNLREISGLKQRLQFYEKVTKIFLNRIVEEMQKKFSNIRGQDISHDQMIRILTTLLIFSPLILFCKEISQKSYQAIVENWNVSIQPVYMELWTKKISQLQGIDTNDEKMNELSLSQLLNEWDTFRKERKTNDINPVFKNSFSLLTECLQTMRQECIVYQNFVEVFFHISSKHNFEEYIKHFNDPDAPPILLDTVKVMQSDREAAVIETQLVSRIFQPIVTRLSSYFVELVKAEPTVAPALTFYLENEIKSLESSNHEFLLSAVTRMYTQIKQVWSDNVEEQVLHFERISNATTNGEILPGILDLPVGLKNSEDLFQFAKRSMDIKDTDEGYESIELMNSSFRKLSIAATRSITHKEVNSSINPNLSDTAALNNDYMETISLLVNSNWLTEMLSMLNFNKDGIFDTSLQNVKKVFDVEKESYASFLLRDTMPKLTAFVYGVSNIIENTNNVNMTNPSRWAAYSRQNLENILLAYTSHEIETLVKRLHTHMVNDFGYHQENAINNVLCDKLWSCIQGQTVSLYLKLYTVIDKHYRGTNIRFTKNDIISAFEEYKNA
UniProt P35169: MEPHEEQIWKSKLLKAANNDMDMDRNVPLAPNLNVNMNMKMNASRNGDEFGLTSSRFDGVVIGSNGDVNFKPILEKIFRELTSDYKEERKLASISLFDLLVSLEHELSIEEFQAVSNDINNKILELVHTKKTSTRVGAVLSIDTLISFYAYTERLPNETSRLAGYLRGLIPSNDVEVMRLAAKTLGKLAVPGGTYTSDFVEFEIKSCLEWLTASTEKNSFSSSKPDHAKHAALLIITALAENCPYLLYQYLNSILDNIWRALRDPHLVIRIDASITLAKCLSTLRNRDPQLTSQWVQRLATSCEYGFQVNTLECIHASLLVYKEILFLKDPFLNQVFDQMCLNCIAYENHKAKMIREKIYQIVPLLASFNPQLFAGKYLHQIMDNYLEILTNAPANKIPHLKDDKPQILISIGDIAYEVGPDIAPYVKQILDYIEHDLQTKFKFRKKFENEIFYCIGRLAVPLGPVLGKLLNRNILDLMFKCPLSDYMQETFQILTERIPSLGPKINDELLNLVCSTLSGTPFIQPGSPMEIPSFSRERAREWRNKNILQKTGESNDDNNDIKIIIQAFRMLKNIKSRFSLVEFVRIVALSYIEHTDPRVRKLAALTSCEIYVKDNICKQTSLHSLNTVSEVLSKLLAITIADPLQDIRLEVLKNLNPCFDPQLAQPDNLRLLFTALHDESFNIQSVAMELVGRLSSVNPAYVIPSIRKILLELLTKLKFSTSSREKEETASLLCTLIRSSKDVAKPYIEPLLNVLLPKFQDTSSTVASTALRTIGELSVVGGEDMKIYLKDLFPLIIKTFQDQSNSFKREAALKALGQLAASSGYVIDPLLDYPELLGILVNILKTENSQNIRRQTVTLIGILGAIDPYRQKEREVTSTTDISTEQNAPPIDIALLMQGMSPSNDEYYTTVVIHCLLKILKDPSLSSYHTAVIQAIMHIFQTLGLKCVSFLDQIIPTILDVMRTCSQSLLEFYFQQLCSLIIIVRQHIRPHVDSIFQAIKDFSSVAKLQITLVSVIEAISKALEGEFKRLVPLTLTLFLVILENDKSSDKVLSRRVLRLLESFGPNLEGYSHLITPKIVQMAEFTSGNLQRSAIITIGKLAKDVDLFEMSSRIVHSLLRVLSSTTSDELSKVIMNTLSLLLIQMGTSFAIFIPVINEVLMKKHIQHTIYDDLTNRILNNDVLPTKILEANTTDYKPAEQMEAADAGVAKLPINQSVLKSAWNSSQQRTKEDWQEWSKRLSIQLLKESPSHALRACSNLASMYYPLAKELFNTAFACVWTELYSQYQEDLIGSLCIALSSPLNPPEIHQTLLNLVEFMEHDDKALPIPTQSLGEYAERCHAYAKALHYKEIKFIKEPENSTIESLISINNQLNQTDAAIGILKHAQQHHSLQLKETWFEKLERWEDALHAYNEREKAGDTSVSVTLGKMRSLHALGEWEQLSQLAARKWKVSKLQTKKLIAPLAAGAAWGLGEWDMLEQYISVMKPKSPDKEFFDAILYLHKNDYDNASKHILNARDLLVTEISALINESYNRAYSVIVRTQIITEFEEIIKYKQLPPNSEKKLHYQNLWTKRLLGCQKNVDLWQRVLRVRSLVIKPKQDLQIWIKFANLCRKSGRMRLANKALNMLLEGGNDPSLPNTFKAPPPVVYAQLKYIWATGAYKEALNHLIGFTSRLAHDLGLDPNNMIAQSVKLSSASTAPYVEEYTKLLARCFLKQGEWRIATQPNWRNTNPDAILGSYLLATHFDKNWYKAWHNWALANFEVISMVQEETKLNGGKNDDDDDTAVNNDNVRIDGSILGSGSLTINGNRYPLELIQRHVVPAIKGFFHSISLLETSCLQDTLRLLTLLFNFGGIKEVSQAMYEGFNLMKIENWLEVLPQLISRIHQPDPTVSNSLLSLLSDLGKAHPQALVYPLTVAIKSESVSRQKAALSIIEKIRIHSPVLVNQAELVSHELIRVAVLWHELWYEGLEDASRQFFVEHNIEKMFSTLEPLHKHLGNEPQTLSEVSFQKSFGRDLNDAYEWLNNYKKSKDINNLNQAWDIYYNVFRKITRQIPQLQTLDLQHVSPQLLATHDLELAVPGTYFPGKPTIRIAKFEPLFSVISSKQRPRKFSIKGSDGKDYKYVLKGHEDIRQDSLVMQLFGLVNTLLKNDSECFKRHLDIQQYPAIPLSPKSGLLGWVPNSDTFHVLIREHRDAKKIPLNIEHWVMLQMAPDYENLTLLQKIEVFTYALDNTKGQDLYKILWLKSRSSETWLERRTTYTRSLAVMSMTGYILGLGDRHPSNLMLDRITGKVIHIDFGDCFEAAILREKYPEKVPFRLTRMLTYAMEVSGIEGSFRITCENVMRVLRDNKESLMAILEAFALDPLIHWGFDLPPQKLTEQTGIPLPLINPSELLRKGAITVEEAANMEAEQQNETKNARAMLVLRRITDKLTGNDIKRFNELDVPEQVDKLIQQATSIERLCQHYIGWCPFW
UniProt P40357: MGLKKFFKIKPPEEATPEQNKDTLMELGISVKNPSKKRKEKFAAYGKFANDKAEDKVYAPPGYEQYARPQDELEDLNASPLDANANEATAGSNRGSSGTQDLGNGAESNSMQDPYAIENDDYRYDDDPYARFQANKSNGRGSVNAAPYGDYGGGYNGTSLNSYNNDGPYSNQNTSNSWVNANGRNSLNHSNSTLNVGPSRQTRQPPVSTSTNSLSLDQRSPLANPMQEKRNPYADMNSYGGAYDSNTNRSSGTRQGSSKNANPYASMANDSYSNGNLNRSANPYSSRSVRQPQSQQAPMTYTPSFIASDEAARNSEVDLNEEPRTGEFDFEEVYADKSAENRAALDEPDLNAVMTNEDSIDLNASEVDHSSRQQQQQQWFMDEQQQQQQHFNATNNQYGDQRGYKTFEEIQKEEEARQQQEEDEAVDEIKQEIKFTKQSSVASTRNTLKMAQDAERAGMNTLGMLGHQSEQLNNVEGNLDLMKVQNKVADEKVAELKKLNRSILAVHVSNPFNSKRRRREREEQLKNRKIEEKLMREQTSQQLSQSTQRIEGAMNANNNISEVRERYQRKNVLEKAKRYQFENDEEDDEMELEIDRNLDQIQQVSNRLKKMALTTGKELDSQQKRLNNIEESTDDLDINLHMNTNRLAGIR

Assay [1] addresses Cbk1-5FLAG (S. cerevisiae) (UniProt P53894). The assay can be described thus: co-IP; Cbk1-5FLAG immunoprecipitated on FLAG-beads from extracts of cdc15-2 cells arrested in late anaphase at 37 °C, with or without rapamycin for 20 min; immunoblotting.
The target of the next assay is Cbk1-TAP (S. cerevisiae) (UniProt P53894). The assay can be described thus: co-IP; Cbk1-TAP immunoprecipitated on IgG beads from extracts of cdc15-2 cells arrested in late anaphase at 37 °C, with or without rapamycin for 20 min; immunoblotting.
The next assay addresses Sec3-TAP (S. cerevisiae) (UniProt P33332). The experiment in a line: co-IP; Sec3-TAP immunoprecipitated from extracts of cdc15-2 cells arrested at 37 °C and released at 24 °C for 45 min, with or without rapamycin; immunoblotting with sera against Sso1 (also recognises Sso2) and Sec9.

Results are given in words; binding and its absence hold for the method and conditions named. Binding seen in cells or lysates may run through a third protein. Some results given as binding are weak or reduced against the parent protein; the word gives no strength.

Turning to “HA3-Tor1 (from UniProt P35169 1-2470) (enzyme)”, the binding entry in assay [1] was “binds”.
As for Sec3-5FLAG (from UniProt P33332 1-1336), the binding result with Cbk1-TAP (S. cerevisiae) is on record as “binds”.
Turning to Sec9 (from UniProt P40357 1-651), in the assay with Sec3-TAP (S. cerevisiae), the binding result is “binds”.
